These compounds were tested on Serius (assay: 1st quenching assay (relative fluorescence of fluorescent protein)). Details: Table 2; relative fluorescence remaining.
Assay type: biochemical

Row | Compound | Fluorescence quench Average
1 | NCCCCCO [#0003, 5-Amino-1-pentanol] | 0.63
2 | NCCCCO [#0006, 4-Amino-1-butanol] | 0.64
3 | NCCCCCCO [#0007, 6-Amino-1-hexanol] | 0.22
4 | NCC1CCCC(CN)C1 (stereo not drawn) [#0070, 1,3-Bis(aminomethyl)cyclohexane] | 0.52
5 | NCC1CCC(CN)CC1 (stereo not drawn) [#0071, 1,4-Bis(aminomethyl)cyclohexane] | 0.56
6 | Cl.O=C(O)CCP(CCC(=O)O)CCC(=O)O [#0197, Tris(2-carboxyethyl)phosphine hydrochloride] | −0.05
7 | NCCCNCCNCCCN [#0277, N,N′-Bis(3-aminopropyl)ethylenediamine] | 0.71
8 | CCCCCCCCCCCCCC[N+](C)(C)Cc1ccccc1 [#0362, Benzyldimethyltetradecylammonium chloride hydrate] | 1.07
9 | CN(CCCN)CCCN [#0380, 3,3′-Diamino-N-methyldipropylamine] | 0.62
10 | OCCNCc1ccccc1 [#0389, N-Benzylethanolamine] | 0.57
11 | NCCCOCCCN [#0394, Bis(3-aminopropyl) ehter] | 0.54
12 | NCC1CCOCC1 [#0407, 4-Aminomethyltetrahydropyran] | 0.65
13 | CCCCN(CCO)CCO [#0414, N-Butyldiethanolamine] | 0.70
14 | [Cl-].c1ccc(C[P+](c2ccccc2)(c2ccccc2)c2ccccc2)cc1 [#0425, Benzyltriphenylphosphonium chloride] | 0.35
15 | NCCCn1ccnc1 [#0484, 1-(3-Aminopropyl)imidazole] | 0.72
16 | C1CCC2=NCCCN2CC1 [#0594, 1,8-Diazabicyclo[5.4.0]-7-undecene] | 0.54
17 | CCCCCCCCCCCCN [#0627, Dodecylamine acetate] | 1.05
18 | CCCCCCCCCCCC[n+]1ccccc1 [#0635, 1-Dodecylpyridinium chloride] | 1.04
19 | Cc1cc(=O)n(-c2ccccc2)n1C [#0640, 2,3-Dimethyl-1-phenyl-5-pyrazolone] | 0.84
20 | CCCCCCCCCC[N+](C)(C)CCCS(=O)(=O)O [#0651, Decyldimethyl(3-sulfopropyl)ammonium hydroxide] | 0.07
21 | C[n+]1ccc(-c2cc[n+](C)cc2)cc1 [#0652, 1,1′-Dimethyl-4,4′-bipyridinium dichloride] | 0.42
22 | CCC(N)CCN (stereo not drawn) [#0678, 1,3-Diaminopentane] | 0.60
23 | CCCCCCCCCCCC[N+](C)(C)CCCS(=O)(=O)O [#0694, Dodecyldimethyl(3-sulfopropyl)ammonium hydroxide] | 1.09
24 | CCN(CC)CCN [#0779, N,N-Diethylethylenediamine] | 0.70
25 | NCCCCN [#0783, 1,4-Diaminobutane] | 0.60
26 | NCCCNCCCN [#0785, 3,3′-Diaminodipropylamine] | 0.62

Row | Compound | Fluorescence quench Average
27 | CN(C)C(=O)c1ccccc1 [#0788, N,N-Dimethylbenzamide] | 0.76
28 | NC(=O)c1cccnc1 [#0855, Nicotinamide] | 0.75
29 | CCn1ccnc1 [#0938, 1-Ethylimidazole] | 0.80
30 | Cc1cccc(C)n1 [#1008, 2,6-Lutidine] | 0.71
31 | CCCCCCCCCCCC[N+](C)(C)C [#1021, Dodecyltrimethylammonium chloride] | 1.11
32 | CC(C)NCCCN [#1027, N-Isopropyl-1,3-diaminopropane] | 0.55
33 | OCCN1CC1 [#1061, 1-(2-Hydroxyethyl)ethyleneimine] | 0.80
34 | NCC(O)CN [#1062, 1,3-Diamino-2-propanol] | 0.67
35 | c1cnccn1 [#1085, Pyrazine] | 0.67
36 | NCc1cccnc1 [#1102, 3-Picolylamine] | 0.77
37 | CC(O)CN(CCN(CC(C)O)CC(C)O)CCN(CC(C)O)CC(C)O (stereo not drawn) [#1105, N,N,N′,N″,N″-Pentakis(2-hydroxypropyl)diethylenetriamine] | 0.74
38 | c1cnc(N2CCNCC2)nc1 [#1167, 1-(2-Pyrimidyl)piperazine] | 0.01
39 | OCCCC1CCN(CCO)CC1 [#1226, 1-(2-Hydroxyethyl)-4-(3-hydroxypropyl)piperidine] | 0.76
40 | CC(CN)CCCN (stereo not drawn) [#1267, 2-Methyl-1,5-diaminopentane] | 0.51
41 | CNC(=O)c1cccnc1 [#1283, N-Methylnicotinamide] | 0.71
42 | Cc1ccnc(C)c1 [#1312, 2,4-Lutidine] | 0.84
43 | OCCCCCBr [#1367, 5-Bromo-1-pentanol] | −0.01
44 | COc1ccc(CO)cc1OC [#1422, Veratryl alcohol] | 0.89
45 | CN(C)C(=N)N(C)C [#1444, 1,1,3,3-Tetramethylguanidine] | 0.14
46 | C[C@H](CCC(=O)[O-])[C@H]1CC[C@H]2[C@@H]3CC[C@@H]4C[C@H](O)CC[C@]4(C)[C@H]3C[C@H](O)[C@]12C.[Na+] [#1507, Sodium deoxycholate] | 1.03
47 | OCCN(CCO)CCN(CCO)CCO [#1537, N,N,N′,N′-Tetrakis(2-hydroxyethyl)ethylenediamine] | 0.66
48 | CCN(CC)CCO [#1575, 2-Diethylaminoethanol] | 0.61
49 | CC1(C)CC(N)CC(C)(CN)C1 (stereo not drawn) [#1602, Isophoronediamine] | 0.63
50 | C[N+](C)(C)Cc1ccccc1.[OH-] [#03887, Benzyltrimethylammonium hydroxide] | 0.00
51 | Dodacene-1 LAS (JIS K 3361-1990) [#0672] | 1.08
52 | Tween ® 40 [#1465] | 0.64

Same assay, conditions: Table 2; relative fluorescence remaining; listed as #0562

Row | Compound | Fluorescence quench Average
53 | C[C@H](CCC(=O)[O-])[C@H]1CC[C@H]2[C@@H]3CC[C@@H]4C[C@H](O)CC[C@]4(C)[C@H]3C[C@H](O)[C@]12C.[Na+] [#1507, Sodium deoxycholate] | 1.08

Same assay, conditions: Table 2; relative fluorescence remaining; listed as #0661

Row | Compound | Fluorescence quench Average
54 | CCCCCCCCCCCC[N+](C)(C)CCCS(=O)(=O)O [#0694, Dodecyldimethyl(3-sulfopropyl)ammonium hydroxide] | 1.13
